Assay results from publication PMC6105598, “Targeting protein-protein interactions for therapeutic discovery via FRET-based high-throughput screening in living cells” (Scientific Reports, 2018).
pEC50: −log10 of the molar value.

Protein sequences, listed by entry. Tags and fused reporters are not part of them. Residues count along the entry.
UniProt P16615, 1-997 isoform P16615-2, stated change not applied: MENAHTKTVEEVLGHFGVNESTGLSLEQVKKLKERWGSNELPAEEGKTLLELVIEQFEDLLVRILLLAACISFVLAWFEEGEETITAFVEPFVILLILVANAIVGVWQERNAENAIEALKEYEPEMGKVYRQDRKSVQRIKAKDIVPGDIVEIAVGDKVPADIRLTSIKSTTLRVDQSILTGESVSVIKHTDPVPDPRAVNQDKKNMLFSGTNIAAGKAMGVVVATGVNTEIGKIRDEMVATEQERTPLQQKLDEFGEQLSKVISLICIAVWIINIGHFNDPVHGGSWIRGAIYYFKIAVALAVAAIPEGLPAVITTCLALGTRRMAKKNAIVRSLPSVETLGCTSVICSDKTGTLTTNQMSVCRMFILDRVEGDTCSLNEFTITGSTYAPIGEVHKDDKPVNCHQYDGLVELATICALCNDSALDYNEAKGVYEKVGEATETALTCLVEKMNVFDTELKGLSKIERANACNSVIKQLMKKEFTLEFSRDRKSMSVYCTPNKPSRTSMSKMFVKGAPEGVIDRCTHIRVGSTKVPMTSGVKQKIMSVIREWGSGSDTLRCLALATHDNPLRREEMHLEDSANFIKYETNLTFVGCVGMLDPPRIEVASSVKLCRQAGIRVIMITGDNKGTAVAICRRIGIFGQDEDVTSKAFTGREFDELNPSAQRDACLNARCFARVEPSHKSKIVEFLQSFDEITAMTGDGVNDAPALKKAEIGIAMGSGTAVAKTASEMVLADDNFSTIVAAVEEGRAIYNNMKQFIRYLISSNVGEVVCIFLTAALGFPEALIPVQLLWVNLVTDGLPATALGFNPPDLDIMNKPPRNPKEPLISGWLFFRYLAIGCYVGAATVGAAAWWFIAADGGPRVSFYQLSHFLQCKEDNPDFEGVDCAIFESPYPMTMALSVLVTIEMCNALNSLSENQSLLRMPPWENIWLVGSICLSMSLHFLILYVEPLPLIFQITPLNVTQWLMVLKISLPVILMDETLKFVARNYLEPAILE
UniProt P26678, whole entry C36A/C41F/C46A: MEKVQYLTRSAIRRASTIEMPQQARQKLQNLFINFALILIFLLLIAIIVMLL
UniProt P11607, 1-997 isoform P11607-2: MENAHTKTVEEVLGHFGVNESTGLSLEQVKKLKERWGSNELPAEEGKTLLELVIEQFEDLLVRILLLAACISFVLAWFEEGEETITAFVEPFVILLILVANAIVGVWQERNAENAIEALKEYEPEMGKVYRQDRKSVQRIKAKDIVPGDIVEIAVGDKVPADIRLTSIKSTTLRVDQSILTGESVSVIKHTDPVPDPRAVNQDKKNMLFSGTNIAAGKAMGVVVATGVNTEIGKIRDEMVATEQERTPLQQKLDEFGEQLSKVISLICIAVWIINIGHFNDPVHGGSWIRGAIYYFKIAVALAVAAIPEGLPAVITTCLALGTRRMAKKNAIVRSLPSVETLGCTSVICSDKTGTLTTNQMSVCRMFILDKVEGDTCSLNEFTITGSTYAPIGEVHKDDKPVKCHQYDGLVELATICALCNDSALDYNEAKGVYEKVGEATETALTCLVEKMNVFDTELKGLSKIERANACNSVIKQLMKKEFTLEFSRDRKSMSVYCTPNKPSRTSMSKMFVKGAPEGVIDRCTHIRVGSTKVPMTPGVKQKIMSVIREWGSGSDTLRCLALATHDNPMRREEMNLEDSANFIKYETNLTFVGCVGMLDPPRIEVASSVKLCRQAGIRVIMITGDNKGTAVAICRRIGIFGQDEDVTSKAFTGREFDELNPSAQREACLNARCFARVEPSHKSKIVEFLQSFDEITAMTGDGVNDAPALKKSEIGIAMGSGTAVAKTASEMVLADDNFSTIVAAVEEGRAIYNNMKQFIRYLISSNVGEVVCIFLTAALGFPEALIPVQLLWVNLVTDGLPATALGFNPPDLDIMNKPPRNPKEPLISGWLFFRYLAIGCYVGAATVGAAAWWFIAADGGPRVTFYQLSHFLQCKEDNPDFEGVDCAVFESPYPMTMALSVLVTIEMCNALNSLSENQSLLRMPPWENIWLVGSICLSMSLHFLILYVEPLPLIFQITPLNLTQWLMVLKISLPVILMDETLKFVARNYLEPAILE
UniProt P04191, 1-994 isoform P04191-2: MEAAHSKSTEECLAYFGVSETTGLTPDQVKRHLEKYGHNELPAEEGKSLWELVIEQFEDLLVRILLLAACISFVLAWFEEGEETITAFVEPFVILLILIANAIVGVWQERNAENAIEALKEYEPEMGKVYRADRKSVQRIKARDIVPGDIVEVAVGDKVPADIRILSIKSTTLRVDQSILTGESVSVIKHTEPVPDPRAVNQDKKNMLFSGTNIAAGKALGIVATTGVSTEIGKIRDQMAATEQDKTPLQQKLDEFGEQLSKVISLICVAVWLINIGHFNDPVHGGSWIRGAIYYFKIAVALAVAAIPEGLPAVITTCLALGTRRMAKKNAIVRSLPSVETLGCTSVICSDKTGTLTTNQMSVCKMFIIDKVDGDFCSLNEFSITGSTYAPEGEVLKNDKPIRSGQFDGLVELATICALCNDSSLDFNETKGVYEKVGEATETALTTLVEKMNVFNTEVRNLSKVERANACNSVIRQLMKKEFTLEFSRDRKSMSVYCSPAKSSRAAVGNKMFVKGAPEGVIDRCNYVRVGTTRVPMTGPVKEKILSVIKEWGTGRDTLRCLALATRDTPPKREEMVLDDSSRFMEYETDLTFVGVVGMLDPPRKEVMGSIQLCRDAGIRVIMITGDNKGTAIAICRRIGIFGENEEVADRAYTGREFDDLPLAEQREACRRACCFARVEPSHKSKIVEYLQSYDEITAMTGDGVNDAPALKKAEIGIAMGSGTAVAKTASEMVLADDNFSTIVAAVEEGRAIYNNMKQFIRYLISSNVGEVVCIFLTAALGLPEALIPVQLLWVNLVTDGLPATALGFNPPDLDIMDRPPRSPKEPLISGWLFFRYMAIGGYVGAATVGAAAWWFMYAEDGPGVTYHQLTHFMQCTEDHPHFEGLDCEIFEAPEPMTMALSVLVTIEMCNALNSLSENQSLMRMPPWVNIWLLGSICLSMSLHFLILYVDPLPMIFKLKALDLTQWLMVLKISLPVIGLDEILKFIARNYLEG

What was measured:
[1] = target: SERCA2a-PLB complex (GFP-SERCA2a / RFP-PLB in HEK293 cells) (Homo sapiens, UniProt P16615+P26678, C36A/C41F/C46A); assay: SERCA2a-PLB TR-FRET (fluorescence lifetime) biosensor assay in living cells; assay type: cell-based; set-up: expressed in transfected cells; host or cells: HEK293; settings: for ΔFLT: compound incubation for 20 min, uncertainty (1 S.D.) 11 ps
[2] = target: T1, cardiac SR (SERCA2a + PLB) (Sus scrofa, UniProt P11607); assay: Ca-ATPase activity of cardiac SR (CSR), NADH-linked enzyme-coupled assay; assay type: biochemical, pig
T1 construct: Cardiac SR membrane vesicles were isolated from ventricular myocardium obtained from fresh pig hearts; from tissue; host or cells: pig ventricular myocardium, SR membrane vesicles
Procedure: To characterize the relationship between the structural readout (FRET) and the functional effects, in vitro Ca-ATPase assays were performed on cardiac SR (which contains both SERCA2a and PLB). […] To further examine the functional effects of Hit compounds, Ca-ATPase assays were performed on both skeletal SR (SERCA1a only) and cardiac SR (SERCA2a + PLB) at a series of Ca concentrations ranging from pCa 5 to 8.
(§1) Skeletal muscle SR membrane vesicles were isolated from longissimus dorsi obtained from New Zealand white rabbits, as previously described. Cardiac SR membrane vesicles were isolated from ventricular myocardium obtained from fresh pig hearts. All experimental protocols were reviewed and approved by University of Minnesota’s Institutional Animal Care and Use Committee, an Association for Assessment and Accreditation of Laboratory Animal Care institution.
An enzyme-coupled, NADH-linked ATPase assay was used to measure SERCA ATPase activity in 96-well microplates. […] The assay was started upon the addition of ATP at a final concentration of 5 mM and read in a SpectraMax Plus microplate spectrophotometer rom Molecular Devices (Sunnyvale, CA).

[3] = target: T2, skeletal SR (SERCA1a only) (Oryctolagus cuniculus, UniProt P04191); assay: Ca-ATPase activity of skeletal SR (SSR), NADH-linked enzyme-coupled assay; assay type: biochemical, rabbit
T2 construct: Skeletal muscle SR membrane vesicles were isolated from longissimus dorsi obtained from New Zealand white rabbits; from tissue; host or cells: rabbit longissimus dorsi skeletal muscle, SR membrane vesicles
Procedure: To further examine the functional effects of Hit compounds, Ca-ATPase assays were performed on both skeletal SR (SERCA1a only) and cardiac SR (SERCA2a + PLB) at a series of Ca concentrations ranging from pCa 5 to 8.
as §1
An enzyme-coupled, NADH-linked ATPase assay was used to measure SERCA ATPase activity in 96-well microplates. Each well contained 0.8 μg (skeletal) or 2 μg (cardiac) of SR vesicles adjusted for the different SERCA contents of skeletal and cardiac SR, 50 mM MOPS (pH 7.0), 100 mM KCl, 5 mM MgCl2, 1 mM EGTA, 0.2 mM NADH, 1 mM phosphoenol pyruvate, 10 IU/mL of pyruvate kinase, 10 IU/mL of lactate dehydrogenase, 3.5 μg/mL of the Ca ionophore A23187, and CaCl2 added to set free [Ca] to the desired values. The assay was started upon the addition of ATP at a final concentration of 5 mM and read in a SpectraMax Plus microplate spectrophotometer rom Molecular Devices (Sunnyvale, CA).

## O=C1NC(=O)c2c1c(-c1ccccc1)cc1[nH]c3ccc(O)cc3c21 [PD-407824]
[1]; final concentration 10 µM
  ΔFLT: -103 ps
[1]; final concentration 100 µM
  ΔFLT: -186 ps
[1]; concentration-response 0.01-100 µM compound, live HEK293 cells
  pEC50: 5.07
[2]
  Vmax @ 30 µM: 0.32 i.u.
[2]; CSR, 30 µM compound, relative to DMSO control
  ΔVmax @ 30 µM: -53.4%
[3]
  Vmax @ 30 µM: 1.31 i.u.
[3]; SSR, 30 µM compound, relative to DMSO control
  ΔVmax @ 30 µM: -50.0%
